Experimental data: the supplement of paper PMC7666118
The other results are listed elsewhere or left out.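 Rule for the calls: active = dose-dependent thermal stabilisation significant by F-test of dose-response against flat model at 10% FDR; inactive = not significant.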

Amino acid sequences for entries named in this document (tags omitted). A change or cut given only in a name is not applied to a line headed by its entry.
UniProt Q69YQ0: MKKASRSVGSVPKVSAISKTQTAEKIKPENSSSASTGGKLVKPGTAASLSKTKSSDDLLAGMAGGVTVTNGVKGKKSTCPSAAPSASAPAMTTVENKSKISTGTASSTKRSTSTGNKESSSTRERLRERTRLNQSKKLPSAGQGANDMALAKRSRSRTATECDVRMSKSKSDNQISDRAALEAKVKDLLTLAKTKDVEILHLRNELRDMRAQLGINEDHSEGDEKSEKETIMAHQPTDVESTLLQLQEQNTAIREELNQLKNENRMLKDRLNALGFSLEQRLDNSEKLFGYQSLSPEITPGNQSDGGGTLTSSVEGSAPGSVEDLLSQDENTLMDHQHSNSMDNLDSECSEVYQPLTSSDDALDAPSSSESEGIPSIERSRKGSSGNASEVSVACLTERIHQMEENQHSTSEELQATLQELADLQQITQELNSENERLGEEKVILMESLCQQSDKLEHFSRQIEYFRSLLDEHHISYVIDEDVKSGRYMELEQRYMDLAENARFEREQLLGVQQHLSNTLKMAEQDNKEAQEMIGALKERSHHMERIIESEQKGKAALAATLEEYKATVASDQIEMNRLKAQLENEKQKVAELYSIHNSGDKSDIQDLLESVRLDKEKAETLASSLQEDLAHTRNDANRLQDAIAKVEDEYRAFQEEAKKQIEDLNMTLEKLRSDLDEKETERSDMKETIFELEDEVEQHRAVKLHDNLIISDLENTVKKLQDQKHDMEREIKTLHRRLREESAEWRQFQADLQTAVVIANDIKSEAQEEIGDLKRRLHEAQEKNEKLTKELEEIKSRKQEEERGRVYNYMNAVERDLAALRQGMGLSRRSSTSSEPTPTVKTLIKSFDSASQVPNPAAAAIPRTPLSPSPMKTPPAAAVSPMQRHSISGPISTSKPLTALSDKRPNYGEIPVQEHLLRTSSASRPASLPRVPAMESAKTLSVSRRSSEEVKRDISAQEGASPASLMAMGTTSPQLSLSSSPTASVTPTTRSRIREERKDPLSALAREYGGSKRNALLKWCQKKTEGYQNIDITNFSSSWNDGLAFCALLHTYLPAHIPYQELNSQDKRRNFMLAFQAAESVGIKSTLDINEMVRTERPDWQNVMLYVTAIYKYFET
UniProt P34897: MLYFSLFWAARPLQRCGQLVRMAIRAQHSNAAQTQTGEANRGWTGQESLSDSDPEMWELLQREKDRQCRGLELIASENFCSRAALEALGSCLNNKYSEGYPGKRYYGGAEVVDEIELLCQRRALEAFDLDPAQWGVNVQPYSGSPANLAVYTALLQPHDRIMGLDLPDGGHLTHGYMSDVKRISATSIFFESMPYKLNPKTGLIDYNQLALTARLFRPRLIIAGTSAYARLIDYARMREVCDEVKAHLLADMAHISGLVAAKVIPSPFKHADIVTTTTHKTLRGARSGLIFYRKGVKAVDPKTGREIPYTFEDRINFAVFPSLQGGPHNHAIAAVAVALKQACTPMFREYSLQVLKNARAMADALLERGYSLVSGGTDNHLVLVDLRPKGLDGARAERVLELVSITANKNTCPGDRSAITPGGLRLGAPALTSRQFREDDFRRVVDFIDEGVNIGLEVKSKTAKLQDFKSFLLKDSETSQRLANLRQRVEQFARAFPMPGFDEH
UniProt Q96GM5, whole entry: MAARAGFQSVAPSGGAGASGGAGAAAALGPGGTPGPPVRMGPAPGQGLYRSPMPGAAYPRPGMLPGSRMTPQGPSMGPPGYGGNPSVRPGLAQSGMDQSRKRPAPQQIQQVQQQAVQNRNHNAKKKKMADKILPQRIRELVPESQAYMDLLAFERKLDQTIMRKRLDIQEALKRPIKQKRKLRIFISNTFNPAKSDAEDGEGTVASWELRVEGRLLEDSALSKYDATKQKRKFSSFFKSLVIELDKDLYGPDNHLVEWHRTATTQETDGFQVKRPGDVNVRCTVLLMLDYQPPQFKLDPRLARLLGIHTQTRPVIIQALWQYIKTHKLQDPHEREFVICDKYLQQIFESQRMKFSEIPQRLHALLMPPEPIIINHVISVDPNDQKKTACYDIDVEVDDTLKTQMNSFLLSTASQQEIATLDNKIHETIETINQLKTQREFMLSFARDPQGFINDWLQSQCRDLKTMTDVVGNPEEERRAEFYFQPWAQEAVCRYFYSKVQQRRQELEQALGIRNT
UniProt Q13586, whole entry: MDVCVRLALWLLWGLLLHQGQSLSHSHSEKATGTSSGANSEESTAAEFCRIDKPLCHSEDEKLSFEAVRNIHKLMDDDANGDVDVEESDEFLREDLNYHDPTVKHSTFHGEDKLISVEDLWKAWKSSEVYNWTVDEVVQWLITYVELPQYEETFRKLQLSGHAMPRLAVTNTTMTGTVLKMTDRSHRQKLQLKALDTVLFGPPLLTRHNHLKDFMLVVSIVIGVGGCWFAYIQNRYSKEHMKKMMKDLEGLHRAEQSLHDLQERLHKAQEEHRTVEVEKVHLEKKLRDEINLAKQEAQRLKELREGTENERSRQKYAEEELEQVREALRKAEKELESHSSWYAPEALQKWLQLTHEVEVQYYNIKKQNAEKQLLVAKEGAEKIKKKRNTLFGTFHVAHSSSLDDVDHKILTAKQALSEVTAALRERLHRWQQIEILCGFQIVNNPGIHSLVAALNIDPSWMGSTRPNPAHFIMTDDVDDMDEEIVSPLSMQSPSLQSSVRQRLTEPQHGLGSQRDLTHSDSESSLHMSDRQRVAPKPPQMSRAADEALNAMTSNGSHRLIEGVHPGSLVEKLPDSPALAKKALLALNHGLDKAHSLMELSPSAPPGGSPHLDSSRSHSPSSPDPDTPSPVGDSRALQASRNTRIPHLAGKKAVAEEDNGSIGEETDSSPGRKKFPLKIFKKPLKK
UniProt Q8ND83, whole entry: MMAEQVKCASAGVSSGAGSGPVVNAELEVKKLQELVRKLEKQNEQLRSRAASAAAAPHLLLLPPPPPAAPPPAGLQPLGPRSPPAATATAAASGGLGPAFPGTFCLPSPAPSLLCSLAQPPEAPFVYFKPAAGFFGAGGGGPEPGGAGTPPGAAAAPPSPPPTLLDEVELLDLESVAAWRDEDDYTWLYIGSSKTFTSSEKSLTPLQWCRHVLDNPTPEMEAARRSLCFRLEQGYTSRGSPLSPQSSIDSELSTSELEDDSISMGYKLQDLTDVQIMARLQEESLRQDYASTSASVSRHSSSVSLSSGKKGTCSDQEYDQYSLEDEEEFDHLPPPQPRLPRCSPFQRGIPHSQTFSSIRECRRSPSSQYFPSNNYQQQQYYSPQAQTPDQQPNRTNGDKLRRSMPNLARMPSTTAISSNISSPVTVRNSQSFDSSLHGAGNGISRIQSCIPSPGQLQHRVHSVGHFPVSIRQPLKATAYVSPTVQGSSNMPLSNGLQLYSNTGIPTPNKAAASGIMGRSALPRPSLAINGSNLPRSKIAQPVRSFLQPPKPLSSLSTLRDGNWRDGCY
UniProt P04920: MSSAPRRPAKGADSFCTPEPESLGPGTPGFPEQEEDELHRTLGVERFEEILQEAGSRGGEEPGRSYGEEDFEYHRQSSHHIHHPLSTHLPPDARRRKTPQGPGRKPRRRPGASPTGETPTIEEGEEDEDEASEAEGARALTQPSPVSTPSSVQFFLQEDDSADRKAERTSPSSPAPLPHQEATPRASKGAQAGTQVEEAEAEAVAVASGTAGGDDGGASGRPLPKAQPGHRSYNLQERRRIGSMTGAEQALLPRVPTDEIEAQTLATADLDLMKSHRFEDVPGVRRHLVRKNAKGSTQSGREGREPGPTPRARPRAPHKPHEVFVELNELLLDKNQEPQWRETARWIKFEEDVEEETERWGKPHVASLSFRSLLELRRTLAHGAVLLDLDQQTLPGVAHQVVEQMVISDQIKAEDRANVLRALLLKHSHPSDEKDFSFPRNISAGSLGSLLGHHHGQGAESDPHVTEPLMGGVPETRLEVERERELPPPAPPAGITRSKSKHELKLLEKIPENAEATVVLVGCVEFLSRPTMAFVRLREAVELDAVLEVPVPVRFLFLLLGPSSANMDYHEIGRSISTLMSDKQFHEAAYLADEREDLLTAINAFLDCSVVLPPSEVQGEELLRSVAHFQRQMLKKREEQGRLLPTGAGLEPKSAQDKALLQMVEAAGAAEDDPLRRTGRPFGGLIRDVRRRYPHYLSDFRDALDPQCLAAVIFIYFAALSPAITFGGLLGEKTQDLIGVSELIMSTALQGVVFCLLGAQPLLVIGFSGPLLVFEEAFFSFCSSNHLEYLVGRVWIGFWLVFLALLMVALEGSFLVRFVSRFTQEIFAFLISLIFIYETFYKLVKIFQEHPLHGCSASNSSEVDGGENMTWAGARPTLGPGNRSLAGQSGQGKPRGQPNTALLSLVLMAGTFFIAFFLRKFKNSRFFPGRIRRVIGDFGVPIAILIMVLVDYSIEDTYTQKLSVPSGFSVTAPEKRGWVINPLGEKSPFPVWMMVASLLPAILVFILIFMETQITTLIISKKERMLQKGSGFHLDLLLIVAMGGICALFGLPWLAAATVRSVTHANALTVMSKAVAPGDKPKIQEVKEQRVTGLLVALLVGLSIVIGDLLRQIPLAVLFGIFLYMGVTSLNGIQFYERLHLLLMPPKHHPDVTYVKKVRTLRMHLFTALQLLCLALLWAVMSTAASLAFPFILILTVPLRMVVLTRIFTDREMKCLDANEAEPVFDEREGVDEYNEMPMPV
UniProt O60264, whole entry: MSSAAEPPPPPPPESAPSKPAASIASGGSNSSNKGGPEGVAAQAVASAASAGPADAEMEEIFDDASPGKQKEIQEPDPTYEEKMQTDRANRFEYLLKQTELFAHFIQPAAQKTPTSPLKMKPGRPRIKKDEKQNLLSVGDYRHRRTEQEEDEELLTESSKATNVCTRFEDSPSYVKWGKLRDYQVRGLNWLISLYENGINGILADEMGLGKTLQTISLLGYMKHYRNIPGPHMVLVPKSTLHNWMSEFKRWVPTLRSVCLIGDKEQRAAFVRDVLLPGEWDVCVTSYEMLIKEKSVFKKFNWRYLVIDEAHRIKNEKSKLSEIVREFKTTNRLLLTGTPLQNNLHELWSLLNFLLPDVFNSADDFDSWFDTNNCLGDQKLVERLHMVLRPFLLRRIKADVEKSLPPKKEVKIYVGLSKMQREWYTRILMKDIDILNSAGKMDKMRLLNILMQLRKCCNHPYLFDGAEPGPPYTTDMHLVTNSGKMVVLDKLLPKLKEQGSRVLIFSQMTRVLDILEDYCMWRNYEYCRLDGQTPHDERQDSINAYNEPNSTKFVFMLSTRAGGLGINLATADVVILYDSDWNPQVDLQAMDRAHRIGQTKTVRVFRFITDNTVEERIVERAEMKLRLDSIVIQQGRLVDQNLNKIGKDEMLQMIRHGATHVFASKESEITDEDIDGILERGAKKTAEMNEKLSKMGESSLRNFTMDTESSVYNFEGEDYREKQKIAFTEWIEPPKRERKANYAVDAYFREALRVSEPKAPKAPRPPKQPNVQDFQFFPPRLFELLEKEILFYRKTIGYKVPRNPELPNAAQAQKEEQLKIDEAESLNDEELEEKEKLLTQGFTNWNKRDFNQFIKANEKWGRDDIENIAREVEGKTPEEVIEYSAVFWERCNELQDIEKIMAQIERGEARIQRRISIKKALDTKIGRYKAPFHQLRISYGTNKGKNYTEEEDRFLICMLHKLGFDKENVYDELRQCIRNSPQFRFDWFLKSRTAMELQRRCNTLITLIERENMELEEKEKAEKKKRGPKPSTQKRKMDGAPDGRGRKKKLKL

compound: Nc1nc2c(ncn2[C@@H]2O[C@H](COP(=O)(O)OP(=O)(O)OP(=O)(O)O)[C@@H](O)[C@H]2O)c(=O)[nH]1; assay: dose-dependent thermal stabilisation call (2D-TPP, DLPTP, 10% FDR) (binary (1 = stabilised)); higher = stabilised by the compound; settings: system: Jurkat gel-filtered lysate; concentration range 1-500 µM

| Target | dose-dependent thermal stabilisation call |
| --- | --- |
| SPECC1L (UniProt Q69YQ0) | inactive: 0 |
| SHMT2 (UniProt P34897) | active: 1 |
| SMARCD1 (UniProt Q96GM5) | active: 1 |
| STIM1 (UniProt Q13586) | inactive: 0 |
| SLAIN1 (UniProt Q8ND83) | inactive: 0 |
| SLC4A2 (UniProt P04920) | inactive: 0 |
| SRGAP2 (UniProt O75044) | inactive: 0 |
| SMARCA5 (UniProt O60264) | inactive: 0 |

Two entries from above, bar-delimited.
Target | dose-dependent thermal stabilisation call
SRGAP2 (UniProt O75044) | inactive: 0
SMARCA5 (UniProt O60264) | inactive: 0
